Assay results reported in patent US20260248128A1 (Solasta Bio Limited, priority 2021, published 2026).

How the values were obtained:
[1] = general procedure: Fmoc solid-phase peptide synthesis; H-Rink Amide ChemMatrix; DIC/Oxyma; HATU/DIPEA for Fmoc-(NMe)Ala-OH and following residue; conditions: whole synthesis, scale of the general procedure 0.1 mmol, 0.2 mmol or 0.5 mmol
[2] = general procedure: Fmoc solid-phase peptide synthesis; H-Rink Amide ChemMatrix; Tentagel S RAM (0.22 mmol/g); Rink Amide ProTide (0.19 mmol/g); DIC/Oxyma; HATU/DIPEA for Fmoc-(NMe)Ala-OH and following residue; conditions: whole synthesis, scale of the general procedure 0.1 mmol, 0.2 mmol or 0.5 mmol

Substance	isolated yield ([1]; overall) [%]	final purity (method not given) [1] [%]	isolated yield ([2]; overall) [%]	final purity (method not given) [2] [%]
Hy-SDSKNT[n-me-A]LWFGPRL-[nh2]	3	90	–	–
SDSKNT[Peptoid-Phe]LWFGPRL-[NH2]	–	–	5	93
